In PMC3834253, “Attenuation of VEGFR-2 Expression by sFlt-1 and Low Oxygen in Human Placenta” (PLoS ONE, 2013):
Results are given in words; binding and its absence hold for the method and conditions named. Binding seen in cells or lysates may run through a third protein. Some results given as binding are weak or reduced against the parent protein; the word gives no strength.

The chains behind the UniProt entries cited, without tags or fusion partners. Residues count along the entry.
UniProt P35968, residues 20-1356: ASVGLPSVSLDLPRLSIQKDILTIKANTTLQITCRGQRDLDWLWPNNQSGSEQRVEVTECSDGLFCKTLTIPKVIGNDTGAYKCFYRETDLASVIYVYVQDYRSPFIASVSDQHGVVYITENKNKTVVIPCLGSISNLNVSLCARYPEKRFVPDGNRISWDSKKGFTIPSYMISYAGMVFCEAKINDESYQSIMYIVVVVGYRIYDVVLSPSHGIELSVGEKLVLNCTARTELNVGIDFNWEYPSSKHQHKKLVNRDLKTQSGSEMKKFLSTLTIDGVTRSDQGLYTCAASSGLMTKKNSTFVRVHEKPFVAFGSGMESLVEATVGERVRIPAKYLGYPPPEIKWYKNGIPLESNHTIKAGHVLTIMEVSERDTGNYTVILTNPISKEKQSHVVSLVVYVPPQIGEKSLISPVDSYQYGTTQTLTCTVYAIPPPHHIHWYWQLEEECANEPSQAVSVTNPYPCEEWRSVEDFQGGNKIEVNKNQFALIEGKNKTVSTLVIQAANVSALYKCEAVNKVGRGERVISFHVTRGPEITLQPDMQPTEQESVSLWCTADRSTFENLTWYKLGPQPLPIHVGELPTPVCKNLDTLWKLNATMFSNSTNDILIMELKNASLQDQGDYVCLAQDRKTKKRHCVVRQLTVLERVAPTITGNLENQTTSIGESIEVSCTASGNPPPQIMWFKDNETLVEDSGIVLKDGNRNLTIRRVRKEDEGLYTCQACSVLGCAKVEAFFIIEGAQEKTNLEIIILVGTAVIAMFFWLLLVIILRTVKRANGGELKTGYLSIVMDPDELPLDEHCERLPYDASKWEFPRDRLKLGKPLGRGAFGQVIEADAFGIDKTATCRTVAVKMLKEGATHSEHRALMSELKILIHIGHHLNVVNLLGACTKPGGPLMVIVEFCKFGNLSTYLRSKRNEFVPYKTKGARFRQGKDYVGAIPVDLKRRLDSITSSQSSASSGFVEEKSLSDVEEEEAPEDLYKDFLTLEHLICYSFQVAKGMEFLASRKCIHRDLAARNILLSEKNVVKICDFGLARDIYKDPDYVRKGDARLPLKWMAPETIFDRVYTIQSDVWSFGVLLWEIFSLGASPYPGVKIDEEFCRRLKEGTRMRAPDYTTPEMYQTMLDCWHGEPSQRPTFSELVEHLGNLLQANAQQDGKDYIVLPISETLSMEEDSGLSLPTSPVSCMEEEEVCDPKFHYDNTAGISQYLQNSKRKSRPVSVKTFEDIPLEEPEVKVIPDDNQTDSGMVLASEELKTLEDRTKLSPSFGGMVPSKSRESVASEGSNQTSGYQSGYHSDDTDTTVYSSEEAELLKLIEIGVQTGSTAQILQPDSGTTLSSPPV

What was measured:
[1] = target: Vascular endothelial growth factor receptor 2 (VEGFR-2) (human (endogenous in placenta)) (UniProt P35968); assay: co-IP; age-matched preterm control (PTC) placental lysates, 500 ug protein, precipitated with monoclonal VEGFR-2 antibody overnight at 4 C, washed in RIPA buffer, blotted for sFlt-1
[2] = target: Vascular endothelial growth factor receptor 2 (VEGFR-2) (human (endogenous in placenta)) (UniProt P35968); assay: co-IP; human placental tissue lysates (8, 12 and 35 weeks of gestation; preeclamptic placentae), 500 ug protein, precleared with Protein-A Agarose, precipitated with 1 ug monoclonal VEGFR-2 antibody overnight at 4 C, washed 3 times in ice cold RIPA buffer, blotted for sFlt-1

binding [1]: binds weakly | binding [2]: binds
B1: soluble VEGF receptor-1 (sFlt-1), 105 kDa species (sFlt-13) (natural protein, human (endogenous in placenta), UniProt P17948-2 27-687, looked up)
chain: SKLKDPELSLKGTQHIMQAGQTLHLQCRGEAAHKWSLPEMVSKESERLSITKSACGRNGKQFCSTLTLNTAQANHTGFYSCKYLAVPTSKKKETESAIYIFISDTGRPFVEMYSEIPEIIHMTEGRELVIPCRVTSPNITVTLKKFPLDTLIPDGKRIIWDSRKGFIISNATYKEIGLLTCEATVNGHLYKTNYLTHRQTNTIIDVQISTPRPVKLLRGHTLVLNCTATTPLNTRVQMTWSYPDEKNKRASVRRRIDQSNSHANIFYSVLTIDKMQNKDKGLYTCRVRSGPSFKSVNTSVHIYDKAFITVKHRKQQVLETVAGKRSYRLSMKVKAFPSPEVVWLKDGLPATEKSARYLTRGYSLIIKDVTEEDAGNYTILLSIKQSNVFKNLTATLIVNVKPQIYEKAVSSFPDPALYPLGSRQILTCTAYGIPQPTIKWFWHPCNHNHSEARCDFCSNNEESFILDADSNMGNRIESITQRMAIIEGKNKMASTLVVADSRISGIYICIASNKVGTVGRNISFYITDVPNGFHVNLEKMPTEGEDLKLSCTVNKFLYRDVTWILLRTVNNRTMHYSISKQKMAITKEHSITLNLTIMNVSLQDSGTYACRARNVYTGEEILQKKEITIRGEHCNKKAVFSRISKFKSTRNDCTTQSNVKH
notes: sFlt-1, truncated soluble splice variant of VEGFR-1 (six extracellular IgG like domains with a unique C-terminus), human; isoform assigned by the authors from the band size; Detected by blot with an sFlt-1 antibody (AF321, R&D Systems) in VEGFR-2 immunoprecipitates; also called soluble VEGFR-1; source: endogenous, human placental tissue lysate
